Results published in patent US4656247A, “Effective hormonal peptides: D-3-QA1 6-LHRH” (Board of Regents, The University of Texas System, priority 1985, dated 1987).
At least one peptide structure holds a part that was inferred or is arguable (an end, a ring closure or a residue).

How the values were obtained:
[1] = test system: pituitary cells from 21 day old rats; test: In vitro pituitary incubate assay (release of LH and FSH); type: cell-based, rat
Procedure: The data in Tables IV and V are from the in vitro assay of the peptides with the pituitary incubate. This assay measures the release of LH and FSH in an in vitro system with pituitary cells from 21 day old rats. See, Bowers, C. Y. et al. on the inhibitory effects of leutinizing hormone releasing hormone analogs. Endocrinology, 106: 674 (1980).

[2] = Peptides tested biologically (summary statement); conditions: when tested biologically
LHRH receptor = biological target: T1, LHRH receptor (Homo sapiens, UniProt P30968); test: Radioreceptor assay; type: binding; conditions: Table III
T1 sequence (P30968 1-328): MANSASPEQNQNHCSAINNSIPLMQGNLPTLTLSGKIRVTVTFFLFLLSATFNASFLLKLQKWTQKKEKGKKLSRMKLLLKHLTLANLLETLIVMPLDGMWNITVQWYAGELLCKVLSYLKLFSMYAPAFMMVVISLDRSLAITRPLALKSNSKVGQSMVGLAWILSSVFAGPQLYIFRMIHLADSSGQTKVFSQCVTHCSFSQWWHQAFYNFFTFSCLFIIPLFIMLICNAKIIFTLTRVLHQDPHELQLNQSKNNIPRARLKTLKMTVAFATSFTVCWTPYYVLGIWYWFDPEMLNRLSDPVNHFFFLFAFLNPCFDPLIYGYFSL

21 day old female rats = test: In vivo assay in rats for release of LH and FSH; design: species or system rat; conditions: for LH ng/ml Serum ± SEM: Table VII; for LH ± SEM ng/ml serum / FSH ± SEM ng/ml serum: Table XI, 150 ng sc, mean 5-6
Procedure: In vivo rat assay performed by a modification of the method of Bowers, C. Y. et al. Endocrinology, 106, 674 (1980). 21 day old female rats were injected sc with saline or peptide. Blood samples for the RIAs of LH and FSH were collected at +15, +60, +120, or +180 minutes. (Table VI-XI).

## CC(C)C[C@H](NC(=O)[C@@H](Cc1cnc2ccccc2c1)NC(=O)[C@H](Cc1ccc(O)cc1)NC(=O)[C@H](CO)NC(=O)[C@H](Cc1c[nH]c2ccccc12)NC(=O)[C@H](Cc1c[nH]cn1)NC(=O)[C@@H]1CCC(=O)N1)C(=O)N[C@@H](CCCNC(=N)N)C(=O)N1CCC[C@H]1C(=O)NCC(N)=O [D-Qal^6 -LHRH, pyroGlu-His-Trp-Ser-Tyr-D-3-Qal-Leu-Arg-Pro-GlyNH2]
[1]; at 0.1 ng, Table IV
  activity for the release of FSH (D-Pal^6 vs D-Qal^6, words): same essential equivalents
  activity for the release of LH (D-Pal^6 vs D-Qal^6, words): essentially equivalent in activity
[1]; comparable assays
  potency compared with D-Trp^6 -LHRH: essentially equipotent
[2]
  potency compared with LHRH: significantly more potent than LHRH itself
LHRH receptor
  potency of binding at a receptor, compared with LHRH: substantially more effective than LHRH itself
  potency of binding at a receptor, compared with the three known super agonists: comparable with the three known super agonists
21 day old female rats; 10 mg/rat sc, ± 15 min
  LH ng/ml Serum ± SEM: 10.5 ± 2 ng/mL
21 day old female rats; 10 mg/rat sc, ± 60 min
  LH ng/ml Serum ± SEM: 49 ± 14 ng/mL
21 day old female rats; ± 15 min
  LH ng/ml Serum ± SEM: 37 ± 5 ng/mL
21 day old female rats; ± 60 min
  LH ng/ml Serum ± SEM: 226 ± 36 ng/mL
21 day old female rats; + 2 hrs
  LH ± SEM ng/ml serum: 156 ± 7 ng/ml serum
21 day old female rats; +3 hrs
  LH ± SEM ng/ml serum: 104 ± 23 ng/ml serum
21 day old female rats; first column (+ 2 hrs as in upper part)
  FSH ± SEM ng/ml serum: 2211 ± 160 ng/ml serum
21 day old female rats; second column (+3 hrs as in upper part)
  FSH ± SEM ng/ml serum: 2376 ± 529 ng/ml serum
